Data as given in paper doi:10.64898/2025.12.08.692997 (bioRxiv, 2025).
Results are given in words; binding and its absence hold for the method and conditions named. Some binding calls cover weakened binding; strength is not graded here. Where a sequence is shown, tags or fusion partners need not be part of it.

By UniProt entry, the sequences of proteins in these tests, tags left out. Residues count along the entry.
UniProt P20827, residues 19-182: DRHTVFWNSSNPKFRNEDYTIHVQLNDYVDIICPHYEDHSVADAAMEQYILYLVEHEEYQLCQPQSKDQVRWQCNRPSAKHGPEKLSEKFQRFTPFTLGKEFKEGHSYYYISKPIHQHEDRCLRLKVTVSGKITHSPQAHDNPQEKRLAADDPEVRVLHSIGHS

T1: Human EphA3-Fc ectodomain (human) (UniProt P29320)
T1 sequence: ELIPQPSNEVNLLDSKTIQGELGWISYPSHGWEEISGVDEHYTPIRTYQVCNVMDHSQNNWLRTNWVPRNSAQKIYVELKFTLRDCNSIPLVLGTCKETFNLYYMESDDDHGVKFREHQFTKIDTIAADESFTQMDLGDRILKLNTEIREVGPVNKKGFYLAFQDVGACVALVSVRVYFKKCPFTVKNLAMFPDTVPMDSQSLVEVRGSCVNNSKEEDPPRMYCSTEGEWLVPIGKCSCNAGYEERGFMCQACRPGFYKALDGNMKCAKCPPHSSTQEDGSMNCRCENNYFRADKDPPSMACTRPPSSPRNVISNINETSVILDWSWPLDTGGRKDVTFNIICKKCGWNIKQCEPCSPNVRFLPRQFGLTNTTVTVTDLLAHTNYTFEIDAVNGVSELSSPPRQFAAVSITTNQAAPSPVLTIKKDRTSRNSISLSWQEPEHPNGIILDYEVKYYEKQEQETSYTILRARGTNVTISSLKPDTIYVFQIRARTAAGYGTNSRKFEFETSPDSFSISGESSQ

T2: Human EphrinB1-Fc ectodomain (human) (UniProt P98172)
T2 sequence: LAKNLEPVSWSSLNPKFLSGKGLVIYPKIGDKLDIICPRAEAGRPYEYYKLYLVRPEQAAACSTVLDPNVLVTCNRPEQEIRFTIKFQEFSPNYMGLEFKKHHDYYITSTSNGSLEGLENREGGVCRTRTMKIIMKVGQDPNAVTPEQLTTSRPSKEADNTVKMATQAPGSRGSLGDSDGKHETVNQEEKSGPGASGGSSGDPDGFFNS

T3: Human EphrinB3-Fc ectodomain (human) (UniProt Q15768)
T3 sequence: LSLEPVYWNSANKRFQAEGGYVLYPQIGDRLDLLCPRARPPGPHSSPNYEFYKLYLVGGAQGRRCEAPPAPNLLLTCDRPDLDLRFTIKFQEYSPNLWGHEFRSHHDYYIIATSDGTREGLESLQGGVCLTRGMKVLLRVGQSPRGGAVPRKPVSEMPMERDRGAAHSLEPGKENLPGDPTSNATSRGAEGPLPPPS


Columns and labels:
Experiment in all cases: BLI
[1] = biological target: T1, Human EphA3-Fc ectodomain (human)
[2] = biological target: T2, Human EphrinB1-Fc ectodomain (human)
[3] = biological target: T3, Human EphrinB3-Fc ectodomain (human)

| binding [1] | binding [2] | binding [3] | Molecule |
| --- | --- | --- | --- |
| binds | – | – | Human EphrinA1-His protein (from UniProt P20827 19-182) (domain or fragment) |
| – | no binding (tested: 50 nM) | no binding (tested: 50 nM) | Human EphB4-His ectodomain (domain or fragment, UniProt P54760 16-539) LEETLLNTKLETADLKWVTFPQVDGQWEELSGLDEEQHSVRTYEVCDVQRAPGQAHWLRTGWVPRRGAVHVYATLRFTMLECLSLPRAGRSCKETFTVFYYESDADTATALTPAWMENPYIKVDTVAAEHLTRKRPGAEATGKVNVKTLRLGPLSKAGFYLAFQDQGACMALLSLHLFYKKCAQLTVNLTRFPETVPRELVVPVAGSCVVDAVPAPGPSPSLYCREDGQWAEQPVTGCSCAPGFEAAEGNTKCRACAQGTFKPLSGEGSCQPCPANSHSNTIGSAVCQCRVGYFRARTDPRGAPCTTPPSAPRSVVSRLNGSSLHLEWSAPLESGGREDLTYALRCRECRPGGSCAPCGGDLTFDPGPRDLVEPWVVVRGLRPDFTYTFEVTALNGVSSLATGPVPFEPVNVTTDREVPPAVSDIRVTRSSPSSLSLAWAVPRAPSGAVLDYEVKYHEKGAEGPSSVRFLKTSENRAELRGLKRGASYLVQVRARSEAGYGPFGQEHHSQTQLDESEGWREQLA |
